Common to all, as to experiment: co-IP; endogenous proteins from mouse spermatocyte lysates (1 mg; Buffer C with 0.1% IGEPAL, diluted in buffer D), treated with universal nuclease, antibody overnight at 4 °C in IP buffer, protein A or G magnetic beads, detection by immunoblot
A general note: A western blot detects proteins with antibodies after separation by electrophoresis.

Sequences of proteins named here, by UniProt entry; tags and fusion partners are left off.
UniProt Q07832: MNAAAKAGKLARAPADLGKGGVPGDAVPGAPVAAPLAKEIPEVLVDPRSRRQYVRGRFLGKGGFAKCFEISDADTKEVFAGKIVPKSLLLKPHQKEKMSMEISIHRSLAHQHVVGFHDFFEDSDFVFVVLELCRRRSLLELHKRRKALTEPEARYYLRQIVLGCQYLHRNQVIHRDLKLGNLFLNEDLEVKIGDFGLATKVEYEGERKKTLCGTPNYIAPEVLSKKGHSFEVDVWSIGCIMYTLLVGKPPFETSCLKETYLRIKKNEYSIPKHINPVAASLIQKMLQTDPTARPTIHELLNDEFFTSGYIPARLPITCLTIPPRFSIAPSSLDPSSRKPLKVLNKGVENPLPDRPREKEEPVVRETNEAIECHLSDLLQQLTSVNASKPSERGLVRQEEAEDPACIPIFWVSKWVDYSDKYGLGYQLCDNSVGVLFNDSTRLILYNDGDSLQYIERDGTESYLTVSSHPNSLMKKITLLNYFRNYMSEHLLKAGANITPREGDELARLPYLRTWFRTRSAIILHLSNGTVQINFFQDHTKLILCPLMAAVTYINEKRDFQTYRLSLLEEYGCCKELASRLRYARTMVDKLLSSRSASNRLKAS
UniProt Q76MZ3: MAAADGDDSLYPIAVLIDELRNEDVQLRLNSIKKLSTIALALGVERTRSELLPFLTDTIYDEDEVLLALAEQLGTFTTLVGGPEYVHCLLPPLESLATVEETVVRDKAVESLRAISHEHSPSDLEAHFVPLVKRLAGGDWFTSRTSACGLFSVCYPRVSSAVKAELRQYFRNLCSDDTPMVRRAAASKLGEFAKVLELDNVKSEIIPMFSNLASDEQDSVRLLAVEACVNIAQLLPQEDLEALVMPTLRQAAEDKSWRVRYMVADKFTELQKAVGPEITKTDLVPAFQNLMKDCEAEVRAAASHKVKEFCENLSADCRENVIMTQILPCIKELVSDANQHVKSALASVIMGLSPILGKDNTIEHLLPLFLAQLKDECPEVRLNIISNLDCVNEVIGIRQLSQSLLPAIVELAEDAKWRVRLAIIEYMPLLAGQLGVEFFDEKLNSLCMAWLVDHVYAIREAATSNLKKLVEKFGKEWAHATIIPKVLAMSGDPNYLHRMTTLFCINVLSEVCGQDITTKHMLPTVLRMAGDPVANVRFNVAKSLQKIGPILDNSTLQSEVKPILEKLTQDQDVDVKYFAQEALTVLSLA
UniProt E9Q7E2: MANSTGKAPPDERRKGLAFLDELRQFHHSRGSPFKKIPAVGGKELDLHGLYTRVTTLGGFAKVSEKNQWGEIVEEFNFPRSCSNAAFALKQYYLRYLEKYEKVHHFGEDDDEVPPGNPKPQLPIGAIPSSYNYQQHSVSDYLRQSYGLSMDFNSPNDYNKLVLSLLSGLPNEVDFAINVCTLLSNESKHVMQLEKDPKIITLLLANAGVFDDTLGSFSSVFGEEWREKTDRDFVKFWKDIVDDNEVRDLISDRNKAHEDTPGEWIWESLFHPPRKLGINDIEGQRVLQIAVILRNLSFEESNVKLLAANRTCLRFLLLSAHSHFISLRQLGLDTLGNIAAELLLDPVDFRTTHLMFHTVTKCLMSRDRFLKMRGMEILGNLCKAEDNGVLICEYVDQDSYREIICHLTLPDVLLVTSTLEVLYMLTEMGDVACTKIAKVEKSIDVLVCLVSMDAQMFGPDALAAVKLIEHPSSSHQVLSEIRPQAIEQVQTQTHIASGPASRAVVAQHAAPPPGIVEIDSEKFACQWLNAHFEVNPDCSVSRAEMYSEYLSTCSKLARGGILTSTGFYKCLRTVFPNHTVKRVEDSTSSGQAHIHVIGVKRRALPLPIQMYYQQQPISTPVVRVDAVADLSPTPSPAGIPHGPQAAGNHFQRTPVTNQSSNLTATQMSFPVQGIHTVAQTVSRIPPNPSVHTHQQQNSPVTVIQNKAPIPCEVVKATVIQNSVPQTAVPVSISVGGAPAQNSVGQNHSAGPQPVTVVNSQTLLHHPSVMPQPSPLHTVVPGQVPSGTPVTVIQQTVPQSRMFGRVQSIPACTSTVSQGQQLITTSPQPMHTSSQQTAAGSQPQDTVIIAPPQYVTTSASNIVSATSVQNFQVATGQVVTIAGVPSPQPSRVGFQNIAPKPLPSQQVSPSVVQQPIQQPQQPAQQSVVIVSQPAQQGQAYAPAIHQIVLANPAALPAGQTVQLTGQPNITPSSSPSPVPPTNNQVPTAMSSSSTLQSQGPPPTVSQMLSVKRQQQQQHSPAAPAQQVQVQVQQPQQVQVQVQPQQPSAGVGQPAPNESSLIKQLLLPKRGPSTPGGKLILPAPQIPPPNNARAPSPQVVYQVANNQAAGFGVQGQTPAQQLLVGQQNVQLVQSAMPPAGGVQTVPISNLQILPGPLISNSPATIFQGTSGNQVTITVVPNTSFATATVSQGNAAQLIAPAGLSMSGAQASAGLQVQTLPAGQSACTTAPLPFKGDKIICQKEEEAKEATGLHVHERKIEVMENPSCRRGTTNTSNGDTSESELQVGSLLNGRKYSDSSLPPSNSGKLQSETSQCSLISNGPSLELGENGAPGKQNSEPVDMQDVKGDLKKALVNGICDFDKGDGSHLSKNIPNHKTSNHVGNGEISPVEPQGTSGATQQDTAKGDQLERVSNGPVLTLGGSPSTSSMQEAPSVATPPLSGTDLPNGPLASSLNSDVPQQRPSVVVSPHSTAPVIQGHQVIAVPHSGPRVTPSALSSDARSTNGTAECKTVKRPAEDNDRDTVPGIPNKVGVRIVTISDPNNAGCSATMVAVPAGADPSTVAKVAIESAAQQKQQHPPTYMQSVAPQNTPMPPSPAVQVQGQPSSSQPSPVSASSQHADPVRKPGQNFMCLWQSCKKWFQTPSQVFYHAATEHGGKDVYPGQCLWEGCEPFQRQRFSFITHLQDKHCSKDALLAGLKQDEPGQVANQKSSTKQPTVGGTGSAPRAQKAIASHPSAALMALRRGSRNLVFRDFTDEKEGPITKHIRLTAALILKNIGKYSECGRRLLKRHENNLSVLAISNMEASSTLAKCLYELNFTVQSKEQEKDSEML
UniProt Q3TKT4: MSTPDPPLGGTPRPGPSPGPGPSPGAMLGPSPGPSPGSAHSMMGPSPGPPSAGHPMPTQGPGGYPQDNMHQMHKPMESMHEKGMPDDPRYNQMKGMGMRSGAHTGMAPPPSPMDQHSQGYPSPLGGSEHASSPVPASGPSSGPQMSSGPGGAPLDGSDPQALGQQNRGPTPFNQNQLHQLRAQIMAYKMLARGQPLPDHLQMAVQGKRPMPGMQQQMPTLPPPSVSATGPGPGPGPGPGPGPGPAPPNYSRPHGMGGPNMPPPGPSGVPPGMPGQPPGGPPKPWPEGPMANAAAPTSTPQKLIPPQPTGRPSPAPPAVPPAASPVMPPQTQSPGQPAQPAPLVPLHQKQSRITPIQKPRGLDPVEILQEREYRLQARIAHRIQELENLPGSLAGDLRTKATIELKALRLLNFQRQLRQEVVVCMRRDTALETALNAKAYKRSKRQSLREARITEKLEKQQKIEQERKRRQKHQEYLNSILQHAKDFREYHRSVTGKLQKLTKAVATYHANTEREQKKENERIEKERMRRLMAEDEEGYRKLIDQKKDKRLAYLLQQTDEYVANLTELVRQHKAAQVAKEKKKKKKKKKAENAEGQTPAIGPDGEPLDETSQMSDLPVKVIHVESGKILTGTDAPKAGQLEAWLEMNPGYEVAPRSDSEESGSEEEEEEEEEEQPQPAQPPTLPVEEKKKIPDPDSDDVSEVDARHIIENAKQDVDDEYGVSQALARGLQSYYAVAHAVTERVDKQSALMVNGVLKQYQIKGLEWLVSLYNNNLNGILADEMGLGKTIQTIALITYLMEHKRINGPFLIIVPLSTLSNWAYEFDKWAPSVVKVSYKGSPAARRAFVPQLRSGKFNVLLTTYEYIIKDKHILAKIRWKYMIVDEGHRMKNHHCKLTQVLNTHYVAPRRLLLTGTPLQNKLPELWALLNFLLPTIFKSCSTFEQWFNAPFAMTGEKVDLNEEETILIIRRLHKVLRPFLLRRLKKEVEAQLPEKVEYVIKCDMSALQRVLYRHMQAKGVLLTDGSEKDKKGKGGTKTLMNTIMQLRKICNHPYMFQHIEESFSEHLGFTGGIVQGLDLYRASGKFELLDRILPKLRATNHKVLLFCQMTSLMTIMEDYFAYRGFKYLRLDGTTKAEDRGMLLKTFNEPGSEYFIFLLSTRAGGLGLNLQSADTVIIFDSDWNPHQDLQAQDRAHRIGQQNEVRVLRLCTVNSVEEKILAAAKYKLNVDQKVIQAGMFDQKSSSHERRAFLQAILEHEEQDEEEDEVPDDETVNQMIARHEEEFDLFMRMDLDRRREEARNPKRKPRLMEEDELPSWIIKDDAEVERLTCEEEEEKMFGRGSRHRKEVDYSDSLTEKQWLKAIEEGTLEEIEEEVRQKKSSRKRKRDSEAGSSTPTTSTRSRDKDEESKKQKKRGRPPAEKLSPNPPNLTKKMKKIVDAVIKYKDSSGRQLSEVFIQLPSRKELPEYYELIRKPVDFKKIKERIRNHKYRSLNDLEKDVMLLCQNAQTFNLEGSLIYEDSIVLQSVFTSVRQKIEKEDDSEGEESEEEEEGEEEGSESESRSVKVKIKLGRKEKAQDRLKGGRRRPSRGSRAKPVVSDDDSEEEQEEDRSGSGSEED

The target of assay [1] is Polo-like kinase1 (PLK1) (mouse (endogenous in spermatocytes)) (UniProt Q07832).
For assay [2], the target named is PPP2R1A (protein phosphatase 2 regulatory subunit A alpha) (mouse (endogenous in spermatocytes)) (UniProt Q76MZ3).
Assay [3] addresses ARID2, a PBAF (Polybromo - Brg1 Associated Factor)-specific subunit (mouse (endogenous in spermatocytes)) (UniProt E9Q7E2).
Assay [4] concerns the target BRG1, the catalytic subunit of mammalian SWI/SNF chromatin remodeling complex (mouse (endogenous in spermatocytes)) (UniProt Q3TKT4).

No constants are given. Whether binding was seen depends on the method and setting. Binding seen in cells or lysates may run through a third protein. Some binding calls cover weakened binding; strength is not graded here.

Turning to “ARID2, a PBAF (Polybromo - Brg1 Associated Factor)-specific subunit (from UniProt E9Q7E2 1-1828)”, the binding entry in assay [1] and in assay [2] was “binds” each time.
Consider “BRG1, the catalytic subunit of mammalian SWI/SNF chromatin remodeling complex (from UniProt Q3TKT4 1-1613)”, for which the binding entry in assay [1] and in assay [2] was “binds” throughout.
On to “PPP2R1A (protein phosphatase 2 regulatory subunit A alpha) (from UniProt Q76MZ3 1-589)”, for which, in assay [3], the binding result is “binds”.
Turning to “Polo-like kinase1 (PLK1) (from UniProt Q07832 1-603)”, the binding entry in assay [3] and in assay [4] was “binds” each time.

Values taken from article PMC8589837.
